Source: article PMC5316989

Biological target: T1, TMEPAI cytoplasmic domain (aa63-287) fused to the GAL4 DNA-binding domain (UniProt Q969W9)
T1 sequence: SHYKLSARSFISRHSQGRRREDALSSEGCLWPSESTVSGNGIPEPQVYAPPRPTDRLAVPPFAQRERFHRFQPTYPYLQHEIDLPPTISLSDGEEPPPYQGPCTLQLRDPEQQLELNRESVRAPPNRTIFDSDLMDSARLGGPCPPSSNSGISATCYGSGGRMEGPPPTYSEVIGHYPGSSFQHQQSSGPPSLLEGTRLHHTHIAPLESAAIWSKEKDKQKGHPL
Test: two-hybrid; TMEPAI versions as GAL4 DNA-binding domain fusions, partners as GAL4 activation domain fusions; yeast patched on DDO, QDO and QDO/X/A plates, growth on QDO and QDO/X/A means interaction

For “Human Arp1 fused to the GAL4 activation domain”, the binding was “no binding”.

No constants are given. Whether binding was seen depends on the method and setting. Tags and fused reporters may be left off the sequences shown.
